No constants are given. Whether binding was seen depends on the method and setting. Binding seen in cells or lysates may run through a third protein. Some entries that bind do so weakly or less than the wild type. For some of these results: Where a sequence is shown, tags or fusion partners need not be part of it. Values belong to the binder of their own block, whether it stands above or below them.
What was measured:
[1] = target: T1, kinase suppressor of Ras 1 (KSR1), endogenous (human (endogenous in HEK293)) (UniProt Q8IVT5); test: co-IP; endogenous KSR1 and praja2 complex isolated from lysates (2 mg) of HEK293 cells
T1 sequence: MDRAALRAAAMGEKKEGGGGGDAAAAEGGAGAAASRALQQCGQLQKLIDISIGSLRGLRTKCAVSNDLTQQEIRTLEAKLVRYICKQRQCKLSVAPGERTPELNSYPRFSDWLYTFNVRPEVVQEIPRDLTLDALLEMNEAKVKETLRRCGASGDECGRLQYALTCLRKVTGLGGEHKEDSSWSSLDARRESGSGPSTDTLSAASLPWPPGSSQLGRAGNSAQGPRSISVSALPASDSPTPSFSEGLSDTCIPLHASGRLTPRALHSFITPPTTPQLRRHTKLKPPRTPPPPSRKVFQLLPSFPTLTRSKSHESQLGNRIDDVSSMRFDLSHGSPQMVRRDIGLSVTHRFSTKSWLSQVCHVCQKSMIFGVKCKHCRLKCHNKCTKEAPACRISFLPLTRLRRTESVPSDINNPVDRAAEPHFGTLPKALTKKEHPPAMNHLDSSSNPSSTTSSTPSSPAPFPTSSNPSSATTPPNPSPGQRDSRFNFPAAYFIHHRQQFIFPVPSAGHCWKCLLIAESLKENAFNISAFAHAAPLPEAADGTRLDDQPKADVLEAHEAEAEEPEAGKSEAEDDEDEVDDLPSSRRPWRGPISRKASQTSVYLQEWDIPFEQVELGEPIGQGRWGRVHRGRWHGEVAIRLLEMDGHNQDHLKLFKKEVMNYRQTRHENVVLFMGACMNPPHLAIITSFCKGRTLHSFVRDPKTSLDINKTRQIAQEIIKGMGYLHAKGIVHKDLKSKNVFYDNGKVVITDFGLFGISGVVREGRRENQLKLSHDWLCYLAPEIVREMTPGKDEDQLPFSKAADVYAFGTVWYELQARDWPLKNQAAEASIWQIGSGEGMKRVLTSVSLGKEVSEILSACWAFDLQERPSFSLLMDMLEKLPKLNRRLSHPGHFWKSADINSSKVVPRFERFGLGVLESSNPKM

[2] = target: T1, kinase suppressor of Ras 1 (KSR1), endogenous (human (endogenous in HEK293)); test: co-IP; cells pretreated with synthetic peptides (1 μM; scrambled-Flag or go-onERK-Flag); lysates immunoprecipitated for KSR1, blotted for praja2 and KSR1
[3] = target: T2, myc-KSR1 (UniProt Q8IVT5); test: co-IP; HEK293 cells transiently transfected with flag-praja2 constructs, MG132 (10 μM) for 12 h before harvesting; lysates immunoprecipitated with anti-KSR1, blotted with anti-KSR1 and anti-flag
T2 sequence: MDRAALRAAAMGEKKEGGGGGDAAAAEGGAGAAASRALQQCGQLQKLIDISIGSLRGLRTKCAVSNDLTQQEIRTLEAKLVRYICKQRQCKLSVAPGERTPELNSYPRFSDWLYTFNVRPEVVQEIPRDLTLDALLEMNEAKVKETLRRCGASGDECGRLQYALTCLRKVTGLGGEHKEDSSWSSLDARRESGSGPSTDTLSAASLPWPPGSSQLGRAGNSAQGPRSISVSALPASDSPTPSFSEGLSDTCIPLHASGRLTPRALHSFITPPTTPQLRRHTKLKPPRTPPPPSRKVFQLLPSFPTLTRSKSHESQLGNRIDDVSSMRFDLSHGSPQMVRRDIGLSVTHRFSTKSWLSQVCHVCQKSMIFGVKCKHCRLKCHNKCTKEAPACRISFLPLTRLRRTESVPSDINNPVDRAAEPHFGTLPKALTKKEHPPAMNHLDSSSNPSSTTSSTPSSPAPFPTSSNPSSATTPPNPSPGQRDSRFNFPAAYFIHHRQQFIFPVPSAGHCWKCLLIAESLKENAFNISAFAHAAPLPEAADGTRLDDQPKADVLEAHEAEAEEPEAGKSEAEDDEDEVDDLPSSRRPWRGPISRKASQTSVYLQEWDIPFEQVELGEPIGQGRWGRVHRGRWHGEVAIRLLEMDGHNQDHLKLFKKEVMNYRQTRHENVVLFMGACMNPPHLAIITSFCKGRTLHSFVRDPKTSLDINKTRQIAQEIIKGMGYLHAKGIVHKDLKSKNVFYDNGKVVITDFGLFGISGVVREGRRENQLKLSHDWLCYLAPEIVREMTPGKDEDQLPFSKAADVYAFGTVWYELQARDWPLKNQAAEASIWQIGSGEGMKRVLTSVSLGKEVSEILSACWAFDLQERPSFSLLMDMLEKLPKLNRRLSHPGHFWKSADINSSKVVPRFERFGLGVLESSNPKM

[4] = target: T3, GST-praja2 (full-length praja2 fused to the C-terminus of GST) (UniProt O43164); test: pull-down; 20 μl of GST-praja2 beads with in vitro-translated [35S]-labeled KSR1 in 200 μl lysis buffer (150 mM NaCl, 50 mM Tris-HCl pH 7.5, 1 mM EDTA, 0.5% triton X-100), 4 °C overnight; washes with 0.4 M NaCl; autoradiography; only the target purified
T3 sequence: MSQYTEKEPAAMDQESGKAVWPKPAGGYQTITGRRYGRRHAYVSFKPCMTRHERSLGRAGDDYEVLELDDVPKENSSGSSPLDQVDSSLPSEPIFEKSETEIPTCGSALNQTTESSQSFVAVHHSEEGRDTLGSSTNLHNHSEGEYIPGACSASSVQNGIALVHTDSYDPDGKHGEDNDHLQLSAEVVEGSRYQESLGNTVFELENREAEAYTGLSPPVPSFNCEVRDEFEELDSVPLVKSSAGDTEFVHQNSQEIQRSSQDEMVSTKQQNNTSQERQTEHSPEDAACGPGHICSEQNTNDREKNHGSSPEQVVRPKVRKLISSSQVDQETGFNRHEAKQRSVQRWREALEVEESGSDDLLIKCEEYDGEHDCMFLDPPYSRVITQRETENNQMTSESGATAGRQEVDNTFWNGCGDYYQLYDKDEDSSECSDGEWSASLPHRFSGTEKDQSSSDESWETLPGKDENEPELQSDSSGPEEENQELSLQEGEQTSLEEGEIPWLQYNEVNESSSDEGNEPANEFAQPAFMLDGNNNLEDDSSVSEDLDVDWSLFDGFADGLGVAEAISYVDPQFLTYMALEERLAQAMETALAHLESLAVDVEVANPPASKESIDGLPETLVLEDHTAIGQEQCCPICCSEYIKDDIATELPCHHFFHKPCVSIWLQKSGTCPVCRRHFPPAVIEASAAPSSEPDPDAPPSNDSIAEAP

binding [1]: binds
binding [2]: binds
B1: praja2 (endogenous) (natural protein, human (endogenous in HEK293), UniProt O43164 1-708, looked up)
chain: MSQYTEKEPAAMDQESGKAVWPKPAGGYQTITGRRYGRRHAYVSFKPCMTRHERSLGRAGDDYEVLELDDVPKENSSGSSPLDQVDSSLPSEPIFEKSETEIPTCGSALNQTTESSQSFVAVHHSEEGRDTLGSSTNLHNHSEGEYIPGACSASSVQNGIALVHTDSYDPDGKHGEDNDHLQLSAEVVEGSRYQESLGNTVFELENREAEAYTGLSPPVPSFNCEVRDEFEELDSVPLVKSSAGDTEFVHQNSQEIQRSSQDEMVSTKQQNNTSQERQTEHSPEDAACGPGHICSEQNTNDREKNHGSSPEQVVRPKVRKLISSSQVDQETGFNRHEAKQRSVQRWREALEVEESGSDDLLIKCEEYDGEHDCMFLDPPYSRVITQRETENNQMTSESGATAGRQEVDNTFWNGCGDYYQLYDKDEDSSECSDGEWSASLPHRFSGTEKDQSSSDESWETLPGKDENEPELQSDSSGPEEENQELSLQEGEQTSLEEGEIPWLQYNEVNESSSDEGNEPANEFAQPAFMLDGNNNLEDDSSVSEDLDVDWSLFDGFADGLGVAEAISYVDPQFLTYMALEERLAQAMETALAHLESLAVDVEVANPPASKESIDGLPETLVLEDHTAIGQEQCCPICCSEYIKDDIATELPCHHFFHKPCVSIWLQKSGTCPVCRRHFPPAVIEASAAPSSEPDPDAPPSNDSIAEAP

binding [3]: binds
B2: flag-praja2 (wild type) (protein, UniProt O43164 1-708)
chain: MSQYTEKEPAAMDQESGKAVWPKPAGGYQTITGRRYGRRHAYVSFKPCMTRHERSLGRAGDDYEVLELDDVPKENSSGSSPLDQVDSSLPSEPIFEKSETEIPTCGSALNQTTESSQSFVAVHHSEEGRDTLGSSTNLHNHSEGEYIPGACSASSVQNGIALVHTDSYDPDGKHGEDNDHLQLSAEVVEGSRYQESLGNTVFELENREAEAYTGLSPPVPSFNCEVRDEFEELDSVPLVKSSAGDTEFVHQNSQEIQRSSQDEMVSTKQQNNTSQERQTEHSPEDAACGPGHICSEQNTNDREKNHGSSPEQVVRPKVRKLISSSQVDQETGFNRHEAKQRSVQRWREALEVEESGSDDLLIKCEEYDGEHDCMFLDPPYSRVITQRETENNQMTSESGATAGRQEVDNTFWNGCGDYYQLYDKDEDSSECSDGEWSASLPHRFSGTEKDQSSSDESWETLPGKDENEPELQSDSSGPEEENQELSLQEGEQTSLEEGEIPWLQYNEVNESSSDEGNEPANEFAQPAFMLDGNNNLEDDSSVSEDLDVDWSLFDGFADGLGVAEAISYVDPQFLTYMALEERLAQAMETALAHLESLAVDVEVANPPASKESIDGLPETLVLEDHTAIGQEQCCPICCSEYIKDDIATELPCHHFFHKPCVSIWLQKSGTCPVCRRHFPPAVIEASAAPSSEPDPDAPPSNDSIAEAP

binding [4]: binds
B3: in vitro-translated, [35S]-labeled KSR1 (protein, UniProt Q8IVT5 1-923)
chain: MDRAALRAAAMGEKKEGGGGGDAAAAEGGAGAAASRALQQCGQLQKLIDISIGSLRGLRTKCAVSNDLTQQEIRTLEAKLVRYICKQRQCKLSVAPGERTPELNSYPRFSDWLYTFNVRPEVVQEIPRDLTLDALLEMNEAKVKETLRRCGASGDECGRLQYALTCLRKVTGLGGEHKEDSSWSSLDARRESGSGPSTDTLSAASLPWPPGSSQLGRAGNSAQGPRSISVSALPASDSPTPSFSEGLSDTCIPLHASGRLTPRALHSFITPPTTPQLRRHTKLKPPRTPPPPSRKVFQLLPSFPTLTRSKSHESQLGNRIDDVSSMRFDLSHGSPQMVRRDIGLSVTHRFSTKSWLSQVCHVCQKSMIFGVKCKHCRLKCHNKCTKEAPACRISFLPLTRLRRTESVPSDINNPVDRAAEPHFGTLPKALTKKEHPPAMNHLDSSSNPSSTTSSTPSSPAPFPTSSNPSSATTPPNPSPGQRDSRFNFPAAYFIHHRQQFIFPVPSAGHCWKCLLIAESLKENAFNISAFAHAAPLPEAADGTRLDDQPKADVLEAHEAEAEEPEAGKSEAEDDEDEVDDLPSSRRPWRGPISRKASQTSVYLQEWDIPFEQVELGEPIGQGRWGRVHRGRWHGEVAIRLLEMDGHNQDHLKLFKKEVMNYRQTRHENVVLFMGACMNPPHLAIITSFCKGRTLHSFVRDPKTSLDINKTRQIAQEIIKGMGYLHAKGIVHKDLKSKNVFYDNGKVVITDFGLFGISGVVREGRRENQLKLSHDWLCYLAPEIVREMTPGKDEDQLPFSKAADVYAFGTVWYELQARDWPLKNQAAEASIWQIGSGEGMKRVLTSVSLGKEVSEILSACWAFDLQERPSFSLLMDMLEKLPKLNRRLSHPGHFWKSADINSSKVVPRFERFGLGVLESSNPKM
modifications: [35S]-labeled methionine
